Data from PMC9117376.
Results are given in words; binding and its absence hold for the method and conditions named. In cells and extracts the contact can be indirect. Some results given as binding are weak or reduced against the parent protein; the word gives no strength.

The chains behind the UniProt entries cited, without tags or fusion partners.
UniProt Q91VW9: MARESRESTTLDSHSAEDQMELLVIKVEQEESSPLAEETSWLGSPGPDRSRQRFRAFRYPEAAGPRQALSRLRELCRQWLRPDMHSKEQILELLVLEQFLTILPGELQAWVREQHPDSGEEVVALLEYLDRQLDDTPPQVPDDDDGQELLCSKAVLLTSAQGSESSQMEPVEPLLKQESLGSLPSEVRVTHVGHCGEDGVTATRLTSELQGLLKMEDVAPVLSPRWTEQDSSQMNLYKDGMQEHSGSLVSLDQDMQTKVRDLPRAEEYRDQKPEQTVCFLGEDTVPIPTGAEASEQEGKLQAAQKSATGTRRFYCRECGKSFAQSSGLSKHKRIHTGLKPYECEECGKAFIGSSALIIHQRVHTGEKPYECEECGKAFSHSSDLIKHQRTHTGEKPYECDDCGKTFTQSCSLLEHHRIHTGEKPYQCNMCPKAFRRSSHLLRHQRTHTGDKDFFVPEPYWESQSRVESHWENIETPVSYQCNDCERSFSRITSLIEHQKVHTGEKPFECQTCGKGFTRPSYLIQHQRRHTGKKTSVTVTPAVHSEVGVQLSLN
UniProt P17679: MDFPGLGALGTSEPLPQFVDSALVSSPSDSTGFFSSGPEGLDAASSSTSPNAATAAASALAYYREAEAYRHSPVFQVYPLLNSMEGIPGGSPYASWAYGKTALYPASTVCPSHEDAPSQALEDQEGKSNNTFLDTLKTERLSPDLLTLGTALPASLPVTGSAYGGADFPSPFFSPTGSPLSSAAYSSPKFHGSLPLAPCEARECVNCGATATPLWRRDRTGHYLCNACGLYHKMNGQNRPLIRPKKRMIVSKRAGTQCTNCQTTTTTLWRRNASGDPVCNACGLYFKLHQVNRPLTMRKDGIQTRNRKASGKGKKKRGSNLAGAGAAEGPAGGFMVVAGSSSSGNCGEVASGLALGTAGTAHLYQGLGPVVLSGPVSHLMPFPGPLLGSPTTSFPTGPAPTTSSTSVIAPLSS

Target: Zkscan3 fused with a His-tag and GFP (Zkscan3-his-GFP) (UniProt Q91VW9)
Test: co-IP; Called co-immunoprecipitation by the paper; lysate (legend: nuclear extract) of MEL cells expressing Zkscan3-his-GFP, 1 mg/mL, incubated with Ni-NTA agarose overnight at 4 °C, beads washed six times with lysing buffer, western blot; empty Ni-NTA beads as negative control

Sequence: GATA binding factor 1 (GATA1) (from UniProt P17679 1-413)
- binding: binds
